# PubChem BioAssay AID2517 (National Center for Advancing Translational Sciences (NCATS), 2010)
# Protein sequences, listed by entry. Tags and fused reporters are not part of them.
# UniProt P27695, whole entry, looked up: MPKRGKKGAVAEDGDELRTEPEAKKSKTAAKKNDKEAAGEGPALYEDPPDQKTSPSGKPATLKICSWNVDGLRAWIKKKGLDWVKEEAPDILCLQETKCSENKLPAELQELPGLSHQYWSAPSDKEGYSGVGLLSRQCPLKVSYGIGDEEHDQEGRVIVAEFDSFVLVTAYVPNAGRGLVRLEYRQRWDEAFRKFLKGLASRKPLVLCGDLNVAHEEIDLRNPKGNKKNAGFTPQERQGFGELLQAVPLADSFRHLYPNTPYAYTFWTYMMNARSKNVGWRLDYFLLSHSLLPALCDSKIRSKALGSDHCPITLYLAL
# Out of some 350,000 compounds screened, about 1,200 (0.34%) were called active. Inconclusive means that the source gave no clear call. Such entries were picked first, then a sample of the others. The call rests on the fitted dose curve; in most records, active means well fitted inhibition curve with a large enough effect; inconclusive means small, poorly fitted or top-dose-only effect; inactive means no such curve, though single readings can be large or run the other way. Potencies beside an inconclusive call are fits to weak or partial responses and may not hold up.
# Molecular target: DNA repair nuclease/redox regulator APEX1 (Homo sapiens) (UniProt P27695)
# Test: qHTS Assay for Inhibitors of the Human Apurinic/apyrimidinic Endonuclease 1 (APE1); further: nearly all actives have a fitted effect of over 55% in size;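 on activity change, negative = inhibition: plate controls were vehicle for no effect and reference inhibitor for full effect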
# Conditions: recombinant APE1, TAMRA/BHQ-2 abasic DNA cleavage fluorescence; activity change, negative = inhibition: at 65.8 µM (top of the series)
# Text: The apurinic/apyrimidinic endonuclease APE1 is the primary mammalian enzyme responsible for the removal of abasic (or AP) sites in DNA and functions centrally in the base excision DNA repair (BER) pathway. […] Thus, targeting APE1 could improve the efficacy of current treatment paradigms by promoting selective sensitization or protection of diseased and normal cells, respectively.
# Inhibition of APE1 activity was screened by utilizing double-stranded short substrate containing tetrahydrofuran (THF) abasic site labeled with rhodamine-type fluorophore (TAMRA) at the 5'-end and with non-fluorescent Black Hole Quencher-2 (BHQ-2) at the opposing 3'-end. An increase in the fluorescence intensity due to incision of the abasic site by APE1 was used to measure the enzyme activity.
# NIH Chemical Genomics Center [NCGC]
# NIH Molecular Libraries Probe Centers Network [MLPCN]
# Assay Provider: David M. Wilson, III, National Institute on Aging, NIH
# Three uL of enzyme solution (0.75 nM APE1 final concentration) was dispensed to 1536-well Greiner black solid bottom plates. […] The plates were incubated for 15 min at room temperature, and then 1 uL of substrate solution (50 nM final concentration of TAMRA/BHQ-2) was added to start the reaction. The plates were immediately transferred into ViewLux High-throughput CCD imager (Perkin-Elmer) in order to measure the reaction progress in kinetic mode (three reads every 60 seconds) using 525 nm excitation and 598 nm emission fluorescence protocol. The fluorescence intensity difference between the third and the first time points was used to compute reaction progress. Results were normalized to buffer only columns and NSC13755 positive controls and negative control DMSO treated wells.
# Potency means the concentration at half of the fitted maximal effect.
SMILES,Potency,"activity change, negative = inhibition"
CCOc1ccc2oc(-c3ccccc3)c(C(N)=O)c2c1,inactive,
Cn1cccc1-c1cc(C(=O)N/N=C/c2cc(Br)ccc2O)[nH]n1,,inactive: 3.15% [at 12.4 µM]
CN1/C(=C\C(=O)COC(=O)CNC(=O)c2ccc3ccccc3c2)C(C)(C)c2ccccc21,inactive,
CSC1=C(C#N)C(c2ccc(C(C)C)cc2)CC(=O)N1 (stereo not drawn),"inconclusive: 25.1 µM [inhibitor, single point]",
COc1ccc2c(c1)cc(C(O)c1ccccn1)n2S(=O)(=O)c1ccccc1 (stereo not drawn),"inconclusive: 10 µM [inhibitor, single point]",
COC(=O)N/N=C/c1cc(OC)c(O)c([N+](=O)[O-])c1,"inconclusive: 44.7 µM [inhibitor, single point]",
COc1cc(NC(=O)CSc2nnc3c(n2)[nH]c2ccc(S(=O)(=O)NC(C)C)cc23)cc(OC)c1OC,"inconclusive: 28.2 µM [inhibitor, partial curve]",
O=C(CCCn1c(=O)[nH]c2ccccc2c1=O)N1CCN(c2ccccn2)CC1,"inconclusive: 3.16 µM [inhibitor, single point]",
CC1NC2(C(=O)N(Cc3ccccc3)c3ccccc32)C2C(=O)N(c3ccccc3)C(=O)C12 (stereo not drawn),"inconclusive: 14.1 µM [inhibitor, partial curve]",
CCOc1cc(N2CCOCC2)c(OCC)cc1NS(=O)(=O)c1ccc(Cl)s1,"inconclusive: 35.5 µM [inhibitor, single point]",
S=C(Nc1ccccc1)Nc1ccc(Cl)cc1Cl,"inconclusive: 25.1 µM [inhibitor, single point]",
O=C1CC(=O)N(Cc2ccco2)C(=O)N1,active: 10 µM,
Cc1nnc(Sc2cc(NCCO)c([N+](=O)[O-])c3nonc23)s1,inconclusive: 0.0002 µM [inhibitor],
Cc1ccc2cc(/C=N/Nc3ccc(C(=O)O)cc3)c(Cl)nc2c1,"inconclusive: 25.1 µM [inhibitor, single point]",
O=C(O)CCC(C(=O)O)n1c(O)c(C2=c3ccccc3=NC2=O)sc1=S (stereo not drawn),"inconclusive: 1.12 µM [inhibitor, full curve]",
COc1ccc(CCNC(=O)c2ccc(Cl)cc2Cl)cc1OC,"inconclusive: 15.8 µM [inhibitor, partial curve]",
CN(C)C(=O)CSc1nc(-c2ccccc2)nc2c1CCCC2,"inconclusive: 0.562 µM [inhibitor, full curve, poor fit]",
CCC1(c2ccccc2)NC(=O)NC1=O (stereo not drawn),inactive,
Cc1cc(-c2ccc(N=Nc3cc(S(=O)(=O)O)c4ccccc4c3N)c(C)c2)ccc1N=Nc1cc(S(=O)(=O)O)c2ccccc2c1N,active: 25.1 µM,
C=CCn1c(SCC(=O)NC2CCCC2)nc2scc(-c3ccco3)c2c1=O,"inconclusive: 39.8 µM [inhibitor, single point]",

SMILES,Potency,"activity change, negative = inhibition"
CCCCNCC,inactive,
COC(=O)c1[nH]c2cc(OC)ccc2c1N=CN(C)C,"inconclusive: 6.31 µM [inhibitor, single point]",
CCc1ccc(S(=O)(=O)/N=C2/C=C(Sc3ncn[nH]3)C(=O)c3ccccc32)cc1,"inconclusive: 7.08 µM [inhibitor, full curve, poor fit]",
CC(=O)N1CCC(C(=O)Nc2ccccc2)(N(Cc2ccccc2)C(=O)c2cccnc2)CC1,"inconclusive: 39.8 µM [inhibitor, partial curve]",
Cc1c(Cl)cccc1N1C(=O)C(N2C(=O)c3cccc([N+](=O)[O-])c3C2=O)C1c1cccs1 (stereo not drawn),"inconclusive: 11.2 µM [inhibitor, single point]",
O=C(O)CC1CCC(=C(Cl)Cl)C1 (stereo not drawn),"inconclusive: 22.4 µM [inhibitor, single point]",
Cc1nc2c(C)cccc2cc1C(=O)N/N=C/c1ccc(N(C)C)cc1,"inconclusive: 35.5 µM [inhibitor, single point]",
CC(C)(C)NCC(O)c1ccc(O)c(CO)c1 (stereo not drawn),"inconclusive: 25.1 µM [inhibitor, partial curve, poor fit]",
NC(=O)NC(=O)COC(=O)c1ccc(Cl)c(S(=O)(=O)N(Cc2ccccc2)c2ccc(Cl)cc2)c1,"inconclusive: 31.6 µM [inhibitor, single point]",
Cc1cc(NS(=O)(=O)c2ccc(NC(=O)COc3ccc(Br)cc3)cc2)nc(C)n1,inactive,
COc1ccccc1OCc1ccc(C(=O)N(C)C)o1,"inconclusive: 0.0011 µM [inhibitor, full curve, poor fit]",
CCCCCC(=O)Nc1nc(C)c(-c2csc(Nc3cc(Cl)ccc3C)n2)s1,"inconclusive: 31.6 µM [inhibitor, single point]",
O=C(N/N=C\c1ccc2c(c1)OCO2)c1ccc(Cn2cc(Br)c([N+](=O)[O-])n2)o1,"inconclusive: 39.8 µM [inhibitor, single point]",
COc1cc(NC(=O)c2cc3c(C)nc4ccccc4c3o2)cc(OC)c1OC,"inconclusive: 25.1 µM [inhibitor, partial curve]",
Cc1cc(C)c2nc(N3CCC(C(=O)NCCCN4CCCCC4)CC3)sc2c1,"inconclusive: 0.005 µM [inhibitor, full curve, poor fit]",
COc1ccccc1CNC(=O)C(NS(=O)(=O)c1ccc2c(c1)OCCO2)C(C)C (stereo not drawn),"inconclusive: 44.7 µM [inhibitor, single point]",
O=C1C=C(NCCO)C(=O)c2cnccc21,"inconclusive: 15.8 µM [inhibitor, partial curve]",
O=c1c2ccccc2nnn1CSc1nc2sc3c(c2c(=O)n1CC1CCCO1)CCC3 (stereo not drawn),"inconclusive: 44.7 µM [inhibitor, partial curve]",
O=[N+]([O-])c1ccc2nc(-c3ccccc3)n(OCc3ccc(Cl)cc3)c2c1,"inconclusive: 35.5 µM [inhibitor, single point]",
O=C(COC(=O)c1ccc(S(=O)(=O)NCc2ccco2)cc1)Nc1ccccc1OC(F)F,"inconclusive: 31.6 µM [inhibitor, single point]",
COC(=O)c1sccc1NC(=S)N1CCN(c2cc(C)ccc2C)CC1,"inconclusive: 39.8 µM [inhibitor, partial curve]",

# A second format for some results above:
SMILES	Potency	activity change, negative = inhibition
CSC1=C(C#N)C(c2ccc(C(C)C)cc2)CC(=O)N1 (stereo not drawn)	inconclusive: 25.1 µM [inhibitor, single point]	
COc1ccc2c(c1)cc(C(O)c1ccccn1)n2S(=O)(=O)c1ccccc1 (stereo not drawn)	inconclusive: 10 µM [inhibitor, single point]	
COC(=O)N/N=C/c1cc(OC)c(O)c([N+](=O)[O-])c1	inconclusive: 44.7 µM [inhibitor, single point]	

# Continued.

SMILES,Potency,"activity change, negative = inhibition"
CC(C(=O)c1c[nH]c(C(=O)N=CN(C)C)c1)c1ncc(C(F)(F)F)cc1Cl (stereo not drawn),"inconclusive: 3.55 µM [inhibitor, full curve, poor fit]",
COC(=O)CSc1nc2ncc(Cl)cc2[nH]1,"inconclusive: 28.2 µM [inhibitor, partial curve, poor fit]",
COc1cc(C(=O)Nc2cccc(C)c2C)c(Br)c(OC)c1OC,"inconclusive: 3.55 µM [inhibitor, single point]",
S=c1[nH]nc(-c2cc(-c3ccco3)[nH]n2)n1-c1ccccc1Cl,active: 14.1 µM,
CC(=O)c1ccc(NC(=O)N2C3CCC2CC(O)(c2cccnc2)C3)cc1 (stereo not drawn),"inconclusive: 0.631 µM [inhibitor, partial curve]",
CCOc1cc(NC(=S)Nc2cccc(OC)c2)c(OCC)cc1NC(=O)C(C)C,"inconclusive: 44.7 µM [inhibitor, single point]",
Cc1csc2ncnc(NC3CCN(Cc4ccccc4)CC3)c12,"inconclusive: 5.01 µM [inhibitor, single point]",
CCCN1C(=O)/C(=C/c2ccc3c(c2)OCO3)NC1=S,"inconclusive: 44.7 µM [inhibitor, single point]",
O=C(NCCc1ccc(Cl)cc1)c1ccc2nc[nH]c2c1,"inconclusive: 31.6 µM [inhibitor, single point]",
CC(=O)c1ccc(OCC(O)CN2CCN(CCN3C(=O)c4cccc5cccc(c45)C3=O)CC2)cc1 (stereo not drawn),"inconclusive: 20 µM [inhibitor, single point]",
CCOc1ccccc1-c1nc(CN2CCCC2c2nccs2)c(C)o1 (stereo not drawn),inactive,
O=C1C2=CC[C@H]3C(=O)N(C[C@@H]4CCCO4)C(=O)[C@@H]3[C@@H]2[C@H](O)[C@@H]2O[C@H]12,"inconclusive: 3.16 µM [inhibitor, single point]",
Fc1ccccc1Cn1nnc2c(NCCc3ccccn3)ncnc21,"inconclusive: 0.0891 µM [inhibitor, partial curve, poor fit]",
O=C1c2ccccc2-c2cccc(NS(=O)(=O)c3ccc(C(F)(F)F)cc3)c21,"inconclusive: 1.26 µM [inhibitor, full curve, poor fit]",
O=[N+]([O-])c1cccc(CSc2nc3ccccc3[nH]2)c1,"inconclusive: 39.8 µM [inhibitor, single point]",
CC1=C(C(=O)OCc2ccccc2)C(c2cccs2)NC(=O)N1CCCC(=O)O (stereo not drawn),"inconclusive: 7.94 µM [inhibitor, single point]",
Cc1ccc(NC(=O)COn2nnc3ccc(S(=O)(=O)N(C)C)cc32)cc1F,"inconclusive: 1.26 µM [inhibitor, full curve, poor fit]",
CCOC(=O)OCC1OC(c2ccc(C(C)=O)cc2)C=CC1Oc1ccc(-c2ccccc2)cc1 (stereo not drawn),"inconclusive: 3.98 µM [inhibitor, single point]",
CCOC(=O)c1ccc(CNC(=O)Cn2nnc(-c3ccc(C)cc3)n2)o1,"inconclusive: 44.7 µM [inhibitor, single point]",
COC(=O)c1cn(C)c2ccc(S(=O)(=O)N3CCOCC3)cc2c1=O,inactive,
Cc1sc2ncnc(SCC(=O)Nc3ncccc3O)c2c1C,"inconclusive: 29.9 µM [inhibitor, partial curve]",
